About 6,200 (1.8%) of roughly 340,000 compounds were called active. The inconclusive results got no clear call from the source; some entries with a clear call stand among them for comparison. Calls follow the shape of the dose curve; as a rule, active = well fitted activation curve with a large enough effect; inconclusive = small, poorly fitted or top-dose-only effect; inactive = no such curve, though single readings can be large or run the other way. Where the call is inconclusive, the potency comes from a doubtful curve fit.
Test: A quantitative high throughput screen for small molecules that induce DNA re-replication in SW480 colon adenocarcinoma cells. Also: nearly all actives have a fitted effect of over 55% in size. As to re-replication activation: % of control where 0% means no effect.
Settings: Hoechst DNA content imaging, 48 h; re-replication activation: at 46.1 µM (top of the series)
Procedure, shortened: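 First, 250 cells per well were seeded. Next, compound or vehicle (23 nL) was pinned in, plates sat 48 hr at 37 C. Finally Hoechst was added for 40 min before fluorescence scanning.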
For `NC(Cc1nc2ccccc2[nH]1)c1ccc(Cl)cc1` (configuration not stated), the Potency was inconclusive: 3.66 µM [activator, full curve]. With `O=C(C[n+]1ccn(CCCNP2(=O)C=C(c3ccccc3)OC(c3ccccc3)=C2)c1)c1ccccc1` the Potency was inconclusive: 0.0184 µM [activator, full curve, poor fit]. With `Cc1c(N=Nc2c(O)n(Cc3ccccc3)c(=O)[nH]c2=O)c(=O)n(-c2ccccc2)n1C` the Potency was inconclusive: 13 µM [activator, partial curve]. In the case of `CN1CCN(C(=O)COc2ccc(-c3nc4ccccc4s3)cc2)CC1`, the “re-replication activation” value is reported as inactive: -5.7%. For `C[C@@H]1O[C@@H](O[C@H]2C[C@@H](O)[C@]3(CO)[C@H]4[C@H](O)C[C@]5(C)[C@@H](C6=CC(=O)OC6)CC[C@]5(O)[C@@H]4CC[C@]3(O)C2)[C@H](O)[C@H](O)[C@H]1O`, the Potency was active: 0.259 µM. For `CCC[C@H](N[C@@H](CCC)[C@H](O)c1ccccc1)[C@H](O)c1ccccc1`, the Potency was inconclusive: 18.4 µM [activator, single point]. With `Cc1ccc(CN2C3CCCC2CC(NC(=O)Nc2cccc(F)c2)C3)cc1` (configuration not stated) the “re-replication activation” value was inactive: 16.7%. With `FC(F)(F)c1ccc(CNCCc2c[nH]c3ccccc23)cc1` the “re-replication activation” value was inactive: -0.268%. In the case of `COc1ccc(NP(=O)(Nc2ccc(OC)cc2)Oc2ccccc2)cc1`, the Potency is reported as inconclusive: 2.91 µM [activator, full curve, poor fit]. In the case of `C[C@@H](N)Cc1cnc[nH]1`, the Potency is reported as inconclusive: 22.4 µM [activator, single point]. For `Cc1nc2ccccc2c(=O)n1-c1ccc(-c2ccccc2)cc1`, the Potency was inconclusive: 16.4 µM [activator, partial curve, poor fit]. With `Cc1cc(N(CCCl)CCCl)ccc1C=NNC(=O)Cc1cc(=O)oc2cc(O)ccc12` the Potency was inconclusive: 20.6 µM [activator, single point]. With `COc1ccc(CCNC2CCCCCC2)cc1` the Potency was active: 3.26 µM. In the case of `O=C(CN1CCCCC1)c1cccc(Br)c1`, the Potency is reported as inconclusive: 25.9 µM [activator, partial curve, poor fit]. For `O=c1c2ccccc2nc(/C=C/c2ccccc2)n1-c1ccc(O)cc1`, the Potency was inconclusive: 29.1 µM [activator, single point]. In the case of `CN(Cc1c[nH]c2ccccc12)C1CCCCC1`, the Potency is reported as inconclusive: 29.1 µM [activator, single point]. With `COc1ccc2c3c([nH]c2c1)C(C)=NCC3` the Potency was inconclusive: 3.26 µM [activator, full curve, poor fit]. For `CCC(C)(O)C(=O)OC1C(=O)OC2CC3C(C)=CC(=O)C(O)C3(C)C3C4(O)OCC23C1C(C)C4O` (configuration not stated), the Potency was inconclusive: 0.92 µM [activator, full curve, poor fit]. In the case of `CCN(CC)c1ccc(/C=C/[N+](=O)[O-])cc1`, the Potency is reported as inconclusive: 20.6 µM [activator, single point]. With `CN1CCC2(CC1)c1ccccc1-c1ccccc12` the “re-replication activation” value was inactive: -1.7%. With `Cn1c(=O)oc2cc(S(=O)(=O)N3CCCc4ccccc43)ccc21` the Potency was inconclusive: 3.66 µM [activator, partial curve, poor fit]. In the case of `O=[N+]([O-])NC1=NCN(Cc2ccco2)CN1Cc1ccco1`, the Potency is reported as inconclusive: 0.517 µM [activator, full curve, poor fit]. For `Fc1ccc(C(OCCN2CCCC2)c2ccc(Br)cc2)cc1` (configuration not stated), the “re-replication activation” value was inactive: 7.44%. With `N#Cc1cc2c(nc1SCC(=O)Nc1cc(Cl)ccc1Cl)C1CCN2CC1` the Potency was inconclusive: 1.64 µM [activator, partial curve, poor fit]. With `[N-]=[N+]=CC(=O)OC[C@H](N)C(=O)O` the Potency was inconclusive: 0.058 µM [activator, full curve, poor fit]. In the case of `CN1CN(c2ccccc2)C2(CCN(CCCSc3ccccc3NC(=O)/C=C/c3ccccc3)CC2)C1=O`, the Potency is reported as inconclusive: 29.1 µM [activator, single point]. With `Cc1cc(OCC(=O)N[C@@H](Cc2ccccc2)C(=O)O)c2c3c(c(=O)oc2c1)CCC3` the “re-replication activation” value was inactive: -6.48%. For `O=C(c1cn(Cc2ccccc2F)c2ncccc12)C(F)(F)F`, the “re-replication activation” value was inactive: -4.58%. With `O=C(CCl)NN=C(c1ccccc1)c1ccccc1` the Potency was inconclusive: 2.59 µM [activator, full curve, poor fit]. For `CCOc1ccc(N2C(=O)NC(=O)/C(=C\c3ccc(N4CCCCC4)o3)C2=O)cc1`, the Potency was inconclusive: 29.1 µM [activator, single point]. With `O=C(CSC1c2ccccc2-c2ccccc21)N/N=C/c1ccccc1` the Potency was inconclusive: 29.1 µM [activator, single point]. With `C[N+]12CN3CN(CN(C3)C1)C2` the Potency was inconclusive: 29.1 µM [activator, single point]. With `Cn1c(O)c(C=Nc2ccccc2)c(=O)n(C)c1=O` the “re-replication activation” value was inactive: 0.0101%. For `C=CCn1c(O)c(C(C)=Nc2ccc(N(C)C)cc2)c(=O)[nH]c1=O`, the Potency was inconclusive: 20.6 µM [activator, single point]. With `O=C(c1ccccc1)C(CN1CCCC1)c1ccccc1` (configuration not stated) the Potency was active: 7.31 µM. With `Cn1c(O)c(C2=NNC(c3ccc(Cl)cc3)C2)c(=O)n(C)c1=O` (configuration not stated) the Potency was inconclusive: 20.6 µM [activator, single point]. For `CN1C(=O)C(=Cc2ccccc2Oc2ccc(Cl)cc2)C(=O)N(C)C1=O`, the Potency was inconclusive: 29.1 µM [activator, single point]. For `Cc1c(C=C2C(=O)N(C)C(=O)N(C)C2=O)c(=O)n(-c2ccccc2)n1C`, the Potency was inconclusive: 0.082 µM [activator, full curve, poor fit]. For `O=C1NC(=O)N(c2ccccc2)C(=O)/C1=C/c1ccoc1`, the Potency was inconclusive: 13 µM [activator, single point]. With `O=C(Nc1ccccc1)N1CC2CC(C1)c1cccc(=O)n1C2` (configuration not stated) the Potency was inconclusive: 3.26 µM [activator, full curve, poor fit]. In the case of `COc1ccccc1CCNC1C2CC3CC(C2)CC1C3` (configuration not stated), the Potency is reported as inconclusive: 13 µM [activator, partial curve, poor fit]. In the case of `CCOC(=O)C1(c2ccccc2)CCN(CCC(=O)Nc2ccc(F)cc2)CC1`, the Potency is reported as inconclusive: 20.6 µM [activator, single point].

Source: PubChem BioAssay AID624297 (National Center for Advancing Translational Sciences (NCATS), 2012)
Potency is read from the fitted curve at half-maximal effect.
